Experimental data taken from PMC6273140, “Anti-Inflammatory Chemical Profiling of the Australian Rainforest Tree Alphitonia petriei (Rhamnaceae)” (Molecules, 2016).

System: NO production in LPS + IFN-γ activated RAW 264.7 macrophages
Assay: Inhibition of LPS + IFN-γ induced nitric oxide production (Griess assay)
Type: cell-based
Conditions: cytotoxicity LC50 compared to NO IC50, RAW 264.7
Procedure: RAW 264.7 macrophages were grown in 175 cm^2 flasks on DMEM containing 5% foetal bovine serum (FBS) that was supplemented with penicillin (100 μg/mL), streptomycin (100 μg/mL) and L-glutamine (2 mM). The cell line was maintained in 5% CO2 at 37 °C, with media being replaced every 3–4 days. Once cells had grown to confluence in the culture flask, they were removed using a rubber policeman, as opposed to using trypsin, which can remove membrane-bound receptors. The cell suspension was concentrated by centrifugation for 3 min at 900 rpm and re-suspended in a small volume of fresh DMEM (with 1% antibiotics and 5% FBS); cell densities were estimated using a Neubauer counting chamber. The cell concentration was adjusted with DMEM (with 1% antibiotics and 5% FBS) to obtain 60,000 cells/100 μL cell suspension. An aliquot of 100 μL of this cell suspension was dispensed into the wells of 96-well plates. Plates were incubated at 37 °C, 5% CO2 for 18 h before the activation experiments were carried out.
For assays, 90 μL of each concentration of compounds (8 concentrations made by serial dilution from 0 µg/mL to 36 µg/mL compound in DMEM) were added an hour prior to addition of 10 µL of activator. A combination of 10 μg·mL^−1 LPS and 10 U·mL^−1 (1 unit = 0.1 ng/mL) IFN-γ, were used for activation. After activation, the cells were incubated for 24 h at 37 °C and then NO, TNF-α and cell viability was determined. Unactivated cells (exposed to media alone) were used as negative control and activated cells as positive control.
Nitric oxide was determined by Griess reagent quantification of nitrite. Griess reagent was freshly made up of equal volumes of 1% sulfanilamide and 0.1% napthyethylene-diamine in 5% HCl. From each well, 50 µL of supernatant was transferred to a fresh 96-well plate and mixed with 50 µL of Griess reagent and measured at 540 nm in a POLARstar Omega microplate reader (BMG Labtech, Mornington, Australia). The concentration of nitrite was calculated using a standard curve with […] (0–500 μM), and linear regression analysis.
Data calculations were performed using MS-Excel 2010 software. IC50 values were obtained by using the sigmoidal dose–response function in GraphPad Prism. The results were expressed as mean ± standard deviation (SD).

SMILES	Therapeutic Index (TI) (Compared to NO)
C=C(C)[C@@H]1CC[C@]2(C(=O)O)CC[C@]3(C)[C@H](CC[C@@H]4[C@@]5(C)C[C@@H](O)[C@H](O)C(C)(C)[C@@H]5CC[C@]43C)[C@@H]12 [Compound 2, alphitolic acid]	1
C=C(C)[C@@H]1CC[C@]2(C(=O)O)CC[C@]3(C)[C@H](CC[C@@H]4[C@@]5(C)C[C@@H](OC(=O)/C=C/c6ccc(O)cc6)[C@H](O)C(C)(C)[C@@H]5CC[C@]43C)[C@@H]12 [Compound 3, trans-coumaroyl alphitolic acid]	2.8
C=C(C)[C@@H]1CC[C@]2(C(=O)O)CC[C@]3(C)[C@H](CC[C@@H]4[C@@]5(C)C[C@@H](OC(=O)/C=C\c6ccc(O)cc6)[C@H](O)C(C)(C)[C@@H]5CC[C@]43C)[C@@H]12 [Compound 4, cis-coumaroyl alphitolic acid]	2.3
C=C(C)[C@@H]1CC[C@]2(C(=O)O)CC[C@]3(C)[C@H](CC[C@@H]4[C@@]5(C)CC[C@H](O)C(C)(C)[C@@H]5CC[C@]43C)[C@@H]12 [Compound 5, betulinic acid]	3.5
C=C(C)[C@@H]1CC[C@]2(C(=O)O)CC[C@]3(C)[C@H](CC[C@@H]4[C@@]5(C)[C@@H](C(=O)O)[C@H](OC(C)=O)C(C)(C)[C@@H]5CC[C@]43C)C12 (some centres unmarked) [Compound 6, emmolic acid acetate]	0.9
